In PubChem BioAssay AID2685 (National Center for Advancing Translational Sciences (NCATS), 2010):
Some of the results follow. The main result of the screen is listed elsewhere. These columns were measured beside it and carry no call. The list favours compounds with an active or inconclusive main result. Potencies come from curve fits of mixed quality, noted in brackets.

Assay: qHTS Assay for Lipid Storage Modulators in Drosophila S3 Cells;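 as to cell number change: cells counted by Cell Tracker Red CMTPX staining in the red channel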
Conditions: BODIPY lipid droplet fluorescence, 18-24 h; for cell number change: measured here: cell count max response, cells fed with added oleic acid
Outline: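 Drosophila S3 cells loaded with oleic acid (400 uM, as added) and compounds at several concentrations; lipid droplets imaged by 488-nm laser-scanning cytometry, 500–530 nm intensity and object ratio to cell channel. Percent activity normalized to 20 uM Triacsin C.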

[1] = measured here: lipid fluorescence (Fed channel) AC50, cells fed with added oleic acid
[2] = measured here: cell number channel AC50, cells fed with added oleic acid

| SMILES | cell number change [%] | AC50 [1] | AC50 [2] |
| --- | --- | --- | --- |
| O=C1/C(=C/c2cccnc2)Oc2cc(OS(=O)(=O)c3ccccc3)ccc21 | -8.59 | 2.31 µM [rising, partial curve] | – |
| COc1cc(/C=C(\C#N)c2nc3c(s2)CCCC3)ccc1O | -36.8 | – | 20.6 µM [falling, single point] |
| O=C(CSc1nnc(C2CC2)n1C1CC1)c1cc(F)ccc1F | -3.31 | – | – |
| COCCn1c(SCC(=O)c2[nH]c(C)c(C(C)=O)c2C)nc2ccccc2c1=O | 3.72 | 0.00461 µM [rising, full curve, poor fit] | – |
| Cn1c(=O)c2c(nc(CN3CCN(C(=O)c4ccco4)CC3)n2Cc2cccc(Cl)c2)n(C)c1=O | -21.3 | 0.366 µM [rising, full curve, poor fit] | – |
| CC1CCCCN1C(=O)CN1C(=O)CN(C)C(=O)c2ccccc21 (stereo unspecified) | 38.4 | 0.00461 µM [rising, full curve, poor fit] | 29.1 µM [rising, single point] |
| CC1(C)OC(=O)C(=CNCC(=O)NCC(=O)O)C(=O)O1 | -17.3 | 8.2 µM [falling, partial curve] | – |
| Cc1ccc(OCC(=O)Nc2cccc(C)n2)c(C)c1 | -23.3 | 29.1 µM [rising, single point] | – |
| COC(=O)C1=C(C)Nc2c(c(=O)n(C)c(=O)n2C)C1c1ccc(Cl)cc1 (stereo unspecified) | -0.0868 | 0.326 µM [rising, full curve, poor fit] | – |
| Cc1ccc(S(=O)(=O)/N=C(/c2ccccc2)N2CCOCC2)c(C)c1 | 15.6 | 6.51 µM [rising, single point] | – |
| O=C(NC1CCCC1)C(c1ccccc1F)N(C(=O)c1csnn1)c1ccccc1 (stereo unspecified) | -21.4 | – | – |
| CC(C)(C)NC(=O)CCN(/N=C/c1ccncc1)C1=NS(=O)(=O)c2ccccc21 | -4.49 | – | – |
| COC(=O)CNC(=O)CCc1nnc(C2(c3ccc(Cl)cc3)CCC2)o1 | 12.7 | 0.00517 µM [falling, full curve, poor fit] | – |
| O=C(CN1C(=O)S/C(=C\C=C\c2ccccc2)C1=O)Nc1cccc(O)c1 | -9.39 | 18.4 µM [falling, single point] | – |
| CCc1nnc(NC(=O)CSc2ncnc3c2oc2ccccc23)s1 | -8.02 | 0.116 µM [rising, full curve, poor fit] | – |
| O=C(Nc1ccc(N2CCOCC2)c(Cl)c1)c1c(F)c(F)c(F)c(F)c1F | -11.9 | 6.51 µM [falling, single point] | – |
| Cc1c(C(=O)OCC(=O)N2CC(=O)Nc3ccccc32)oc2ccc(Br)cc12 | 14.9 | – | – |

Rewritten with each value named: entries from further up
Cc1ccc(OCC(=O)Nc2cccc(C)n2)c(C)c1
  cell number change [%]: -23.3; AC50 [1]: 29.1 µM [rising, single point]
CC(C)(C)NC(=O)CCN(/N=C/c1ccncc1)C1=NS(=O)(=O)c2ccccc21
  cell number change [%]: -4.49
